Measurements taken from paper PMC10314948.
No constants are given. Whether binding was seen depends on the method and setting. Binding seen in cells or lysates may run through a third protein. Some binding calls cover weakened binding; strength is not graded here. For some assays here: Tags and fused reporters may be left off the sequences shown. Values belong to the substance of their own block, whether it stands above or below them.

Chains of the proteins cited; added tags and fusions are not shown.
UniProt P61586: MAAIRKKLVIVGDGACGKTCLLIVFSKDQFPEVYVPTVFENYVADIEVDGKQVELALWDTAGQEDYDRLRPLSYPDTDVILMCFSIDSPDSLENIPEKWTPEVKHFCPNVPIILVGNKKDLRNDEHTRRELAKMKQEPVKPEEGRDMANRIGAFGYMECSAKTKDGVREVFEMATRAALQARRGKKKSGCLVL
UniProt O75925: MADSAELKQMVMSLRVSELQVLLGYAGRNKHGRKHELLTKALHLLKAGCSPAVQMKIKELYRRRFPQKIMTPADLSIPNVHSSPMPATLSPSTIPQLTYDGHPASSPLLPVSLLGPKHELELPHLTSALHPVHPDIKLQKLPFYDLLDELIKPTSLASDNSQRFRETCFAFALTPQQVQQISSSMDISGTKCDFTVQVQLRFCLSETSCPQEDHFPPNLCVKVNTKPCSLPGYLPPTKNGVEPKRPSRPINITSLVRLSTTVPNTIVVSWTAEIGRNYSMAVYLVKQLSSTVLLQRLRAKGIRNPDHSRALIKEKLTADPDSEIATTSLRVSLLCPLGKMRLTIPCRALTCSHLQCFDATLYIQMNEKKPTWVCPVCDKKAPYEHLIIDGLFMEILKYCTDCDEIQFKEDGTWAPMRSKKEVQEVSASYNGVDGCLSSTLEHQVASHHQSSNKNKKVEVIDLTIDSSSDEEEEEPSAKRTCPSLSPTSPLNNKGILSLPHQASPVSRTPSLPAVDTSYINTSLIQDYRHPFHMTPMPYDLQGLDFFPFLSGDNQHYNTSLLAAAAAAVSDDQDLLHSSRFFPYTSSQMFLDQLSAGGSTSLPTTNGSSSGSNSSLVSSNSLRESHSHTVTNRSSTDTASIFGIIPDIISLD

Experiments:
[1] = molecular target: active form of RhoA (GTP-RhoA) (human (endogenous in 16HBE)) (UniProt P61586); assay: pull-down; GST-Rhotekin RBD-coated beads (EZ-Detect RhoA Activation Kit) capture GTP-RhoA from lysates of 16HBE cells transfected with Flag-ROCK2(WT or K1007R); ROCK2 found with it by western blot
[2] = molecular target: T1, Flag-ROCK2(K1007R) (human) (UniProt O75116); assay: co-IP; Flag antibody and protein A/G agarose overnight at 4 °C; RIPA lysates of 16HBE cells transfected with HA-RhoA and Flag-ROCK2(WT or K1007R), with or without IL-13 for 6 h; blotted with HA antibody
T1 sequence: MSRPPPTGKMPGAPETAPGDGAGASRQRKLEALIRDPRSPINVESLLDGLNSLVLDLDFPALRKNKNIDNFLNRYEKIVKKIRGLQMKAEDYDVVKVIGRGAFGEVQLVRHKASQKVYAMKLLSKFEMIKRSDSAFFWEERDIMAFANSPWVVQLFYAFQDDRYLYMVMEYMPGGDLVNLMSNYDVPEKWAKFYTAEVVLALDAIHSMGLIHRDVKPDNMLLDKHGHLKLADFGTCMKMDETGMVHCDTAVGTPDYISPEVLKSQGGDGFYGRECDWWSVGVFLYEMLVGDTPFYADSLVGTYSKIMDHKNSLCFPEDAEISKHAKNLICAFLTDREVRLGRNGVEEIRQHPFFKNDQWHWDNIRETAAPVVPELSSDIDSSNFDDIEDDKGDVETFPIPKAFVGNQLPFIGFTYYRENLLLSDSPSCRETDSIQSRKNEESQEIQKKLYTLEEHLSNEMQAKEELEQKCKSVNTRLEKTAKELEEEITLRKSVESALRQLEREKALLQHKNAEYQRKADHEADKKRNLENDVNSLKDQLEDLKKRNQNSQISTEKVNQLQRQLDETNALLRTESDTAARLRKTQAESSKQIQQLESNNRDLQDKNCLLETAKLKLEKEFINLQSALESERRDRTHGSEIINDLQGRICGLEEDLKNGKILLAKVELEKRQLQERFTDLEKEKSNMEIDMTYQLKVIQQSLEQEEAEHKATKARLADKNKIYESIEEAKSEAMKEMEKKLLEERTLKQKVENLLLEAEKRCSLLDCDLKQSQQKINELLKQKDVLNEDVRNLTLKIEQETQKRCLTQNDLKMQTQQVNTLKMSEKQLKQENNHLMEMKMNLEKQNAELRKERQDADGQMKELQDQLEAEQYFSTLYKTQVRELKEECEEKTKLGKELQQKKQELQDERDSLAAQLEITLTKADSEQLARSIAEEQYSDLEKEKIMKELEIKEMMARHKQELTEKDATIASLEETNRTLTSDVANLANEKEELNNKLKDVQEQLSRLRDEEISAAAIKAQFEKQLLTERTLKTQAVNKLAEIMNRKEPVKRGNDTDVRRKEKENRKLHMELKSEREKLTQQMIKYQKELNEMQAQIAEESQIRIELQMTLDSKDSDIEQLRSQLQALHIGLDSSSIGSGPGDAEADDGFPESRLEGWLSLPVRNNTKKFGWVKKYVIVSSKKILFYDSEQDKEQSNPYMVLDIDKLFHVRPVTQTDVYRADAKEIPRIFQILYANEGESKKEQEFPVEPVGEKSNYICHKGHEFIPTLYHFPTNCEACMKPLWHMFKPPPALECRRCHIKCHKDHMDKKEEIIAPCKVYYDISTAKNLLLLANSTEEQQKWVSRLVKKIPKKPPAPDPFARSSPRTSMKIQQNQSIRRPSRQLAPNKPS

[3] = molecular target: Flag-ROCK2(WT) (Rho-associated protein kinase 2, wild type) (human) (UniProt O75116); assay: as above
[4] = molecular target: T1, Flag-ROCK2(K1007R) (human); assay: co-IP; Flag antibody and protein A/G agarose overnight at 4 °C; RIPA lysates of 293T cells 48 h after transfection with Myc-PIAS1 and Flag-ROCK2(WT or K1007R)
[5] = molecular target: Flag-ROCK2(WT) (Rho-associated protein kinase 2, wild type) (human) (UniProt O75116); assay: as above

binding [1]: binds
Substance: Flag-ROCK2(WT) (Rho-associated protein kinase 2, wild type) (from UniProt O75116 1-1388) (enzyme)

binding [2]: binds weakly
binding [3]: binds
Substance: HA-RhoA (from UniProt P61586 1-193)

binding [4]: binds
binding [5]: binds
Substance: Myc-PIAS1 (protein inhibitor of activated STAT 1, SUMO E3 ligase) (from UniProt O75925 1-651) (enzyme)
